Paper PMC5487423
Residue numbers refer to the chain shown, from its start. These are yes or no findings as the source states them, for the method shown. Some entries that bind do so weakly or less than the wild type. For part of these data: Sequences can lack the tags named with a protein.

Chains of the proteins cited; added tags and fusions are not shown. Residues count along the entry.
UniProt P13501, residues 24-91: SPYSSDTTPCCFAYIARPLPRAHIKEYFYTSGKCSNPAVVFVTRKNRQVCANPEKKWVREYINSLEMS
UniProt Q99731, residues 22-98: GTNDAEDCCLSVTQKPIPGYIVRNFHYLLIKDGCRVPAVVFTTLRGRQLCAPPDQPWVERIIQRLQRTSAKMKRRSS
UniProt P13236, residues 24-92: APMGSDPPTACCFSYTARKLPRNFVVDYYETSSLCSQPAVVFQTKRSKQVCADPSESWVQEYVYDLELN
UniProt P80075, residues 24-99: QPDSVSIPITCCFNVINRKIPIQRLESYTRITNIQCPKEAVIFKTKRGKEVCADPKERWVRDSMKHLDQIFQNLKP
UniProt Q92583, residues 24-94: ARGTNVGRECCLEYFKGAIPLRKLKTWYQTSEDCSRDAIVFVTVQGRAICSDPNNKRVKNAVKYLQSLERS
UniProt P51671, residues 24-97: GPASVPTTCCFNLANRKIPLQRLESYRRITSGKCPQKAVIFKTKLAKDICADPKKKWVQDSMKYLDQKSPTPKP
UniProt P10147, residues 24-92: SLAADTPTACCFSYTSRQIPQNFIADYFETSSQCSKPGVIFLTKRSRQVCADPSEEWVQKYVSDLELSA
UniProt P13500, residues 24-99: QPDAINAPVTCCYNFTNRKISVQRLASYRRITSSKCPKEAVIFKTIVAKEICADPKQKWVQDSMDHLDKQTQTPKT

Key:
[1] = target: T1, P467_RHIPU, yeast surface display, C-terminal SAG1 fusion (Rhipicephalus pulchellus) (UniProt L7M8Z8); assay: flow cytometry on cells; yeast (EBY100) displaying one evasin fusion after galactose induction, labelled in PBS with biotinylated chemokine (Almac) and streptavidin-Alexa647, 30 minutes on ice; compared with yeast bearing the empty surface display vector; only the binder purified
T1 sequence: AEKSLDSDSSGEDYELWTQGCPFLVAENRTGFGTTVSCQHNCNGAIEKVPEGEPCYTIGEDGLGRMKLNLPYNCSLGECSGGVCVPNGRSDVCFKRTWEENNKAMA

[2] = target: T2, P467_RHIPU, yeast surface display, N-terminal AGA2 fusion (Rhipicephalus pulchellus) (UniProt L7M8Z8); assay: as above
T2 sequence: T1 sequence

[3] = target: T3, P467_RHIPU, yeast surface display library clones (Rhipicephalus pulchellus) (UniProt L7M8Z8); assay: flow cytometry on cells; yeast surface display library (mini-library of 24, maxi-library of 352 putative evasins; N-terminal AGA2, C-terminal SAG1 or AGA2) labelled with one biotinylated human CC chemokine and streptavidin-AF647, two rounds of FACS with a gate set by omitting the chemokine; clones sequenced, re-transformed and retested by FACS; only the binder purified
T3 sequence: T1 sequence

[4] = target: T4, P985_AMBPA, yeast surface display library clones (Amblyomma parvum); assay: as above
T4 sequence: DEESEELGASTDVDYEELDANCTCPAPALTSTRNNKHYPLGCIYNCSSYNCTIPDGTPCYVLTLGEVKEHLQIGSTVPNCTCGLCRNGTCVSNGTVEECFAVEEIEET

[5] = target: T5, P991_AMBCA, yeast surface display library clones (Amblyomma cajennense); assay: as above
T5 sequence: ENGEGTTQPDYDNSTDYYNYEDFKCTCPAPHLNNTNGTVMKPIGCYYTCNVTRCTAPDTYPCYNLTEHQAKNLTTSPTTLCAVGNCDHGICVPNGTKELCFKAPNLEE

[6] = target: T6, P1180_AMBTR, yeast surface display library clones (Amblyomma triste); assay: as above
T6 sequence: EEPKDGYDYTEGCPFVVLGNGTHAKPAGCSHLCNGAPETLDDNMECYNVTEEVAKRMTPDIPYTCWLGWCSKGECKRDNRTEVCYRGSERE

[7] = target: T7, P1182_AMBMA, yeast surface display library clones (Amblyomma maculatum) (UniProt G3MJ83); assay: as above
T7 sequence: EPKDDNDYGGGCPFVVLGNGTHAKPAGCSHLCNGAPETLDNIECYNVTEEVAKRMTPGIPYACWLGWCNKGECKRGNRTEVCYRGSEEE

[8] = target: T8, P974_AMBCA, yeast surface display library clones (Amblyomma cajennense); assay: as above
T8 sequence: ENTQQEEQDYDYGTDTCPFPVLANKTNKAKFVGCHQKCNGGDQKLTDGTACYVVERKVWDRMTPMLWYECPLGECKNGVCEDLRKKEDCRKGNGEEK

[9] = target: T9, P546_AMBCA, yeast surface display library clones (Amblyomma cajennense); assay: as above
T9 sequence: T8 sequence with Q8E, E69S, D88E

[10] = target: T10, P1183_AMBTR, yeast surface display library clones (Amblyomma triste); assay: as above
T10 sequence: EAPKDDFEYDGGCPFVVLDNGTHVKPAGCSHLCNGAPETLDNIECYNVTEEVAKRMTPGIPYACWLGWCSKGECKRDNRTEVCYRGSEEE

Measured: binding

biotinylated CCL5 (from UniProt P13501 24-91) (ligand)
binds: [1] | [2] | [3] | [4] | [5]

biotinylated CCL19 (from UniProt Q99731 22-98) (ligand)
binds: [5]

biotinylated CCL4 (from UniProt P13236 24-92) (ligand)
binds: [6] | [7] | [8] | [5]

biotinylated CCL8 (from UniProt P80075 24-99) (ligand)
binds: [1] | [2] | [6] | [7] | [8] | [5]

biotinylated CCL17 (from UniProt Q92583 24-94) (ligand)
binds: [8] | [5]

biotinylated CCL11 (from UniProt P51671 24-97) (ligand)
binds: [1]

biotinylated CCL3 (from UniProt P10147 24-92) (ligand)
not listed: [4] | [5] | [10]
binds: all other assays above

biotinylated CCL2 (from UniProt P13500 24-99) (ligand)
not listed: [4] | [8] | [9]
binds: all other assays above
